Test results reported in USRE36291E, “Reaction product of nitrogen bases and phosphate esters as corrosion inhibitors” (Baker Hughes Incorporated, priority 1995, dated 1999).

Key:
[1] = Kettle test for corrosion inhibitor efficacy, sweet; settings: 24 hours, stirring, CO2, room temperature
[2] = Kettle test for corrosion inhibitor efficacy, sour; settings: 24 hours, CO2, 50 ppm H2S, room temperature

Row | SMILES | Sweet corrosion rate ([1]; active concentration 150 ppm) | Sour corrosion rate ([2]; active concentration 150 ppm) | Sweet corrosion rate ([1]; active concentration 250 ppm) | Sour corrosion rate ([2]; active concentration 250 ppm)
1 | OCC(CO)(CO)CO [Composition 6] | 27 MPY | 23 MPY |  | 
2 | NC(N)=S [Composition 11] |  |  | 28 MPY | 24 MPY
3 | O=C(O)c1cc(O)c(O)c(O)c1 [Composition 14] |  |  | 61 MPY | 12 MPY
4 | O=C1NS(=O)(=O)c2ccccc21 [Composition 15] |  |  | 49 MPY | 59 MPY
